According to US6656916B1, “Glucocorticoid enhancement of gene expression” (Research Development Foundation, priority 1995, dated 2003):
For at least one compound, name, drawing or mass did not settle the structure.

Assays:
somatostatin promoter = conditions: reporter coupled to a segment of the somatostatin promoter; cited from earlier work
A549 cells = assay: β-galactosidase (CPRG microtiter) activity in A549 cells transfected with reporter plasmid-cationic lipid; type: cell-based, human; conditions: 10^−6 M, 4 hours prior to transfection, pCMVβgal-DMRIE/DOPE

SMILES	Reporter gene activity (somatostatin promoter)	Enhancement of β-gal activity by other topical glucocorticoids (FIG. 2B) (A549 cells)
C[C@@H]1C[C@H]2[C@@H]3CCC4=CC(=O)C=C[C@]4(C)[C@@]3(F)[C@@H](O)C[C@]2(C)[C@@]1(O)C(=O)CO [dexamethasone]	augmented reporter gene activity	–
CCCC1O[C@@H]2C[C@H]3[C@@H]4CCC5=CC(=O)C=C[C@]5(C)[C@H]4[C@@H](O)C[C@]3(C)[C@]2(C(=O)CO)O1 (some centres unmarked) [budesonide, Budesonide]	–	enhanced β-gal activity
